Part of at least one peptide drawing is inferred or uncertain, most often the ends. Square brackets hold non-standard residues; d marks the D form. Peptide text beside a SMILES is read from it. * marks the point of attachment. FITC = O=C1OC2(c3ccc(O)cc3Oc3cc(O)ccc32)c2ccc(NC(=S)*)cc21; Phe(4-F) = N[C@@H](Cc1ccc(F)cc1)C(=O)O; d2Nal = N[C@H](Cc1ccc2ccccc2c1)C(=O)O; dNle = CCCC[C@@H](N)C(=O)O
Legend:
[1] = target: T1, glutathione-S-transferase-SHD SH2 domain fusion protein (Homo sapiens, UniProt Q96IW2); test: FA binding of FITC-9A5 to control protein GST-SH2
T1 construct: glutathione-S-transferase-SHD SH2 domain fusion protein
T1 sequence (Q96IW2 240-335): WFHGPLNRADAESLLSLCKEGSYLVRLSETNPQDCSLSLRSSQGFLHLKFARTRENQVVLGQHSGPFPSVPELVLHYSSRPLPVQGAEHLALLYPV

[2] = system: glutathione-S-transferase-FKBP fusion protein; test: FA binding of FITC-9A5 to control protein GST-FKBP
[3] = target: T2, protein-tyrosine phosphatase 1B (Homo sapiens, UniProt P18031); test: FA binding of FITC-9A5 to control protein PTP1B
T2 sequence (P18031 1-435): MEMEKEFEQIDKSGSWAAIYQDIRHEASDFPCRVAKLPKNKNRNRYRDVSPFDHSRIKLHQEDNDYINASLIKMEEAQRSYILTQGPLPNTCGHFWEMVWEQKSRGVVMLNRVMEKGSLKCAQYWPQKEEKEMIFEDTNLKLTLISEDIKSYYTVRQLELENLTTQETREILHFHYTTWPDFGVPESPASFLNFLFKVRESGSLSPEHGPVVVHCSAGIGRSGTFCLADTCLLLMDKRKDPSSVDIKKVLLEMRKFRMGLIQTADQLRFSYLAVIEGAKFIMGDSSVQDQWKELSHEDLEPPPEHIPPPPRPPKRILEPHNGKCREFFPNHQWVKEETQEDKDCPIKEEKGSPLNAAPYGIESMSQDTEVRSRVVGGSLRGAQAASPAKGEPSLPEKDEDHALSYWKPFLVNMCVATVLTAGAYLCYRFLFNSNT

Measured: binding to control protein

CCCC[C@H]1NC(=O)[C@H](Cc2ccc(F)cc2)NC(=O)[C@H](CCCNC(=N)N)NC(=O)[C@@H](Cc2ccc3ccccc3c2)NC(=O)[C@H](CCCCNC(=S)Nc2ccc3c(c2)C(=O)OC32c3ccc(O)cc3Oc3cc(O)ccc32)NC(=O)[C@H](CCCNC(=N)N)NC(=O)[C@H](CCCNC(=N)N)NC(=O)[C@@H](C)NC(=O)[C@H]([C@@H](C)O)NC(=O)[C@H](Cc2c[nH]c3ccccc23)NC(=O)[C@H](CCC(N)=O)NC1=O [FITC-9A5] (cyclo(K(FITC)[d2Nal]R[Phe(4-F)][dNle]QWT[dA]RR))
no significant binding: [1] | [2] | [3]
